Reference: US9034439B2, “Synthesis and applications of soluble pentacene precursors and related compounds” (Academia Sinica, priority 2008, dated 2015)

Columns and labels:
[1] = OTFT device with film made from spin-coated precursor (FET characteristics)
[2] = Photochemical CO expulsion to pentacene in degassed THF; format: physicochemical
[3] = channel width 20 cm, length 10 μm
[4] = channel width 1 mm, channel length 5 μm

For O=C1[C@H]2c3cc4ccccc4cc3[C@H]1c1cc3ccccc3cc12 [Compound 1, reference compound], the “field-effect mobility μ” value [1, 3] was 8.8×10^−3 cm^2 V^−1 s^−1, the on/off current ratio [1, 3] was ~1.2×10^5 and the yield of pentacene ([2]; 310 nm irradiation, degassed THF, similar photolysis protocol) was 12.6±0.6%.

For O=C1[C@@H]2c3ccccc3[C@@H]1c1cc3cc4ccccc4cc3cc12 [Compound 2], the “field-effect mobility μ” value [1, 3] was 1.2×10^−3 cm^2 V^−1 s^−1 and the “yield of pentacene production (pentacene produced per photon absorbed)” value ([2]; 385 nm laser 10 mW/cm^2, 40 sec, ~1.2×10^−4 M in THF) was 16.2±1.0%.

For C1=C[C@@H]2c3cc4cc5cc6c(cc5cc4cc3[C@@H]1[C@]21OCCO1)[C@H]1C=C[C@@H]6[C@]12OCCO2 [Compound 16], the “field-effect mobility μ” value [1, 4] was 7.89×10^−6 cm^2/Vs and the on/off current ratio [1, 4] was 1.7×10^3.
